Among the data in the supplement of paper PMC5949888 are growth estimate values, retold here.

± gives the standard deviation of the averaged measurements. Most values lie at the floor of the assay. Slopes are relative: functional sequences can read slightly below zero.

The data set deals with Saccharomyces cerevisiae PS128 hsf1 delta, HSF1(1-493) fusion. Briefly: growth estimate (transactivation domain function in HSF1 fusion, heat-shock survival) (a.u. (slope of normalised read count over time)); higher = stronger growth at 37°C, i.e. more transactivation activity. The following applies: library: random library.
Regarding LGRLDLARKVFPPEALHTTL, the growth estimate is < -0.25. Turning to LSGLDRILRKPEGMVRGCPC, the growth estimate was < -0.25. In the case of CVCSRVRDPTYLHTGVGEPT, the growth estimate was < -0.25. In the case of LFYGPMVCLDRAPFLPMQRQ it was < -0.25. In the case of TFALT it was < -0.25; in that of GLSPIPIKHTADNIPPDGTA, < -0.25; in that of CGPSSKGWCVP, < -0.25. As for HCRFTG, the growth estimate is < -0.25.

With RVILWMPSRVRTRAAIRLTF, the growth estimate was < -0.25. For SAELIKRRKKDRELAPSHWD, the growth estimate was < -0.25. Turning to CSNQFDYRGRLCSTLSMVSC, the growth estimate is < -0.25.

With HGVRAVRKSAAVKFGGIIRR, the growth estimate is < -0.25. For the substance FPPYCTVAIDSGASTSICSM, the growth estimate was < -0.25.

Take CGLGREGF: the growth estimate is < -0.25. On to IDT, for which the growth estimate was -0.2484 ± 0.0023.

On to ICLGLPLVKNNNHKRRL, for which the growth estimate is < -0.25. In the case of IRAVSAARRSLAVPA it was < -0.25; in that of FLPRQQ, < -0.25.

TMERAIRTRRLLARTRPPTQ: the growth estimate was < -0.25. Next, LLEDDYN: < -0.25. In the case of AVRTSRGR it was < -0.25; in that of PTLPRQPSTMHARVPRVVCD, < -0.25. Next, NNLDFIQGDGPRSLNHT: < -0.25; TGASPFRSRSIFVYGSRIIR: < -0.25.

With NGRLF, the growth estimate was < -0.25. In the case of MVRLHEKRGCDGSQPN it was < -0.25; in that of PGPGGRSQLQALAKRKQREV, < -0.25. Next, RQVTAGSPRTYSH: < -0.25; AKLAF: < -0.25; YQNVREDPMVHVVVGTVWTI: < -0.25. In the case of LYGVYSLLIVRSGCSVK, the growth estimate is -0.242. On to SGALTLVNRMVFLGFRCRSV, for which the growth estimate was < -0.25. Next, LAGFQQ: < -0.25. In the case of VRTGISNGYLASGGTTHPFG it was < -0.25.

In the case of QDPMLW, the growth estimate is < -0.25. In the case of IPARPRGRRMVGHISFCTPG it was < -0.25. Take DGRSKFANPGASNFSRAVSD: the growth estimate was < -0.25. As for IRSGKIYTN, the growth estimate is < -0.25. As to SGAATPSIQVGAGKKTIDSA, the growth estimate was < -0.25.

Turning to VIPTFIKYRSIDMRRLHISS, the growth estimate was < -0.25. In the case of AGFVEGYNYSVIGSRVACSG it was < -0.25; in that of RQFRL, < -0.25; in that of DMCLVDYSIKRTRKQMSWAS, < -0.25. For the substance LHWFFDLADRAAQDVAAAMS, the growth estimate is 0.0927. Regarding AIIRRSSVHDYVMLLLGPT, the growth estimate was < -0.25. As to YLPRINAAHLIQASLSTVEV, the growth estimate is < -0.25.

For PSKDSVG, the growth estimate is < -0.25.

For the substance VACISMLGAGRRLSPDRLWT, the growth estimate was < -0.25. For GLLLGCLLQTPGSEGFLHDF, the growth estimate is < -0.25. Next, RVISDVYHSDFLLVRFRDKH: < -0.25; LIHLGDFRQ: < -0.25.

Consider SGTGPDVVSNQLKTTGTRAR, for which the growth estimate is < -0.25.

Take MRMAQDRTLGYAYAVPCSF: the growth estimate is < -0.25. Take WGLIAECTIRRRETS: the growth estimate was < -0.25.

On to VLLFGLYKLVSSSRPPITDG, for which the growth estimate was < -0.25.

Take RDFYREWAEYKESPPV: the growth estimate was < -0.25.

With LGTYRVSLTVWGLKVDHASK, the growth estimate was < -0.25.

As for WIVTFLRCVSQELGGGRGCI, the growth estimate is < -0.25. RGIISCIEKHRHIDRFRFPI: the growth estimate is < -0.25. Turning to CQSDRPQQGRDVLPLQ, the growth estimate was < -0.25.

With IIEGPYYFQPGEVSSQRGAV, the growth estimate is < -0.25. Next, FTFAHARKKG: < -0.25; CWKVTGSWGFRK: < -0.25; SIVIGSLAWGLYDNEG: < -0.25.

In the case of QASIC, the growth estimate is < -0.25. In the case of ATCYCKRDL it was < -0.25. Next, LTNYHLYFHPSYKWALALLA: < -0.25. In the case of FAHLLRRYRSSLLLLVQLTA it was < -0.25; in that of LQNRGEEPVLPLPLETPGG, < -0.25. Take VTSHLFNIG: the growth estimate is < -0.25. In the case of KDCKTVTSEAYSVLHRCRCS it was < -0.25. Next, HSTS: < -0.25; DLIYRVTTTSHLHW: < -0.25; WYAGSVCIGLGHRGGKIL: < -0.25.

Consider GGTFQWILRRMVSAMRGTGR, for which the growth estimate is < -0.25.

With DSLGPLGYLRERTNIVGK, the growth estimate is < -0.25. Next, CTLIPNVGGKAQSIHNYCLS: < -0.25.

On to GHVKPLKLGAAKSSPSAGGR, for which the growth estimate is < -0.25. For LDWDCGRTVGRLGPPSSDLS, the growth estimate was < -0.25. In the case of SVGMPNITSVGGFDQGIGFP it was < -0.25; in that of FPDV, < -0.25; in that of PDNGGVFRANTHPGILKVLL, < -0.25. Take ANARDGTRGEQSCPRWFMWN: the growth estimate was < -0.25. In the case of RRAAGCQLYCSSG it was < -0.25; in that of KGMAEGFHRSCCTQRLGGAK, < -0.25. For the substance VSGIRDRSRLK, the growth estimate was < -0.25. In the case of RVLDSVRRAGRAALCIGLPE, the growth estimate was < -0.25. For RSYVV, the growth estimate was < -0.25.

With ERIASLKGRV, the growth estimate is < -0.25. With SIRLIL, the growth estimate was < -0.25. Next, KTVLTVDITGASSLGFLLFR: < -0.25; VVVSQCTCPRPRGPEIESHP: < -0.25; LSDESGPETECPGGMGVLRG: < -0.25. Next, VRRQVRPIRNCREFHVR: < -0.25. For WRDISSTEKDMQPEKTVGLG, the growth estimate was < -0.25. Next, RTSIRGLGYAFSLRYERYPR: < -0.25. Regarding PAKHKTRCYACWQKCVALVR, the growth estimate was < -0.25. In the case of ALPMRVPEDRAVCNGQVPSK it was < -0.25. In the case of GHVRLASCLPRQ it was < -0.25. As to CSPVRSLFCGAVCW, the growth estimate is < -0.25.

In the case of KSG, the growth estimate is < -0.25. In the case of GKGWKSLFNLPLEA it was < -0.25; in that of MIVTSSNARWLPLTSAVKAR, < -0.25. As to PKTPNT, the growth estimate is < -0.25.

Consider DRNFICGEGAVRVFAP, for which the growth estimate was < -0.25. Next, GARKSYAPNFEPPGGWTLGP: < -0.25; ITALGESGLIIWLSRS: < -0.25; FARTRLSKTLVQQVAGDTPT: < -0.25. Take LYSRADIC: the growth estimate was < -0.25.

For TSAGVGLLNVGALPDGIDHA, the growth estimate was < -0.25.

For KGWPAVLDVPRGGVTAHSTY, the growth estimate was < -0.25. In the case of SRCRYAGRLTDECVYIRMRR it was < -0.25.
